Out of some 320,000 compounds screened, about 2,100 (0.66%) were called active. The shares of active, inactive and inconclusive entries below differ from those in the screen. Calls come from the whole dose curve; as a rule, active = well fitted inhibition curve with a large enough effect in the signal ratio, with a control signal flat (not every such curve was filed as active); inconclusive = small, poorly fitted or top-dose-only effect, or effect the other way, or a change in a side signal; inactive = flat fitted curve, though single readings scatter; the % refers to the signal ratio. Potencies beside an inconclusive call are fits to weak or partial responses and may not hold up.
test: qHTS Assay for Lipid Storage Modulators in Drosophila S3 Cells; conditions: BODIPY lipid droplet fluorescence, 18-24 h, cells fed with added oleic acid; lipid storage change, negative = inhibition: at 46.1 µM (top of the series) unless noted
In short: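 Drosophila S3 cells loaded with oleic acid (400 uM, as added) and compounds at several concentrations; lipid droplets imaged by 488-nm laser-scanning cytometry, 500–530 nm intensity and object ratio to cell channel. Percent activity normalized to 20 uM Triacsin C.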
% is set by controls: 0 for no effect and ±100 for the full control effect; potency is the fitted concentration of half-maximal effect.

**Q.** For `CCOCCCNC(=O)c1ccc2c(c1)N=C(CC)c1cc(Br)ccc1S2`, which lipid storage change, negative = inhibition is on record?
**A.** inactive

**Q.** Which lipid storage change, negative = inhibition does the source give for `COC(=O)CSc1nnc(CNS(=O)(=O)c2ccc(Br)cc2)n1C` here?
**A.** inconclusive: 110%

**Q.** Which lipid storage change, negative = inhibition does the source give for `COc1cc(/C=N/NC(=O)c2ccc(O)cc2)ccc1Oc1ccc([N+](=O)[O-])cn1` here?
**A.** inconclusive: -28.1%

**Q.** Which Potency does the source give for `CN1CCc2c(sc(/N=C/c3cccs3)c2C(N)=O)C1` here?
**A.** inconclusive: 0.651 µM [activator, partial curve, poor fit]

**Q.** For `COc1ccccc1/C=C/C(=O)NC(=S)N(C)C1CCCCC1`, which lipid storage change, negative = inhibition is on record?
**A.** inconclusive: -19.4%

**Q.** Which Potency does the source give for `COC(=O)c1ccc(CN2C(=O)C3CCCCC3C2=O)o1` (stereo not drawn) here?
**A.** inconclusive: 29.1 µM [falling, single point]

**Q.** With `COc1cc2c(cc1OC)CN(C1CCC(C)CC1)CC2` (stereo not drawn) as the compound, how does the Potency read?
**A.** inconclusive: 29.1 µM [activator, single point]

**Q.** For `C/C(=N\N=C\c1ccc(N(C)C)cc1)c1cccc([N+](=O)[O-])c1`, which Potency is on record?
**A.** inconclusive: 0.651 µM [activator, full curve, poor fit]

**Q.** Which lipid storage change, negative = inhibition does the source give for `CCCCOc1ccc(C(=O)NCCC(=O)NCCCC(=O)OCC)cc1` here?
**A.** inconclusive: -49.5%

**Q.** With `CCOc1ncccc1C(=O)N(CC)CC(=O)NCc1ccc(F)cc1` as the compound, how does the Potency read?
**A.** active: 3.66 µM

**Q.** Which lipid storage change, negative = inhibition does the source give for `CN(C)c1ccc(/C=C/c2ccc3c4ccccc4ccc3[n+]2-c2ccccc2)cc1` here?
**A.** inconclusive: -23.6%

**Q.** Which Potency does the source give for `COc1ccc(Oc2nc3c(c(=O)n(C)c(=O)n3C)n2Cc2cccc(OC)c2)cc1` here?
**A.** inconclusive: 2.91 µM [activator, partial curve]

**Q.** With `CCCn1c(SCC(=O)NC2CCCCC2)nnc1-c1ccccn1` as the compound, how does the lipid storage change, negative = inhibition read?
**A.** inconclusive: 23.3%

**Q.** With `Cc1ccc(Cn2nnc3c(=O)n(CC(=O)c4ccccc4)cnc32)cc1` as the compound, how does the lipid storage change, negative = inhibition read?
**A.** inconclusive: -10.2%

**Q.** For `S=C(NCc1ccccc1)NC1CCSc2ccccc21` (stereo not drawn), which Potency is on record?
**A.** inconclusive: 6.51 µM [falling, single point]

**Q.** With `CC(C(=O)O)c1n[nH]c(=O)c2ccccc12` (stereo not drawn) as the compound, how does the Potency read?
**A.** inconclusive: 18.4 µM [activator, single point]

**Q.** With `CC(=O)CSc1cc(C)nc2c(-c3ccccc3)c(C)nn12` as the compound, how does the lipid storage change, negative = inhibition read?
**A.** inconclusive: 7.14%

**Q.** For `O=[N+]([O-])c1ccccc1OCCCn1cnc2ccccc21`, which lipid storage change, negative = inhibition is on record?
**A.** inconclusive: -26.7%

**Q.** Which lipid storage change, negative = inhibition does the source give for `CCN(CC)S(=O)(=O)c1cc(C(=O)Oc2ccccc2OC)ccc1OC` here?
**A.** inconclusive: 107%

**Q.** With `Cc1ccc2cc(CN(Cc3ccco3)C(=S)NCC3CCCO3)c(=O)[nH]c2c1` (stereo not drawn) as the compound, how does the lipid storage change, negative = inhibition read?
**A.** inactive

**Q.** Which Potency does the source give for `CCc1nnc(NC(=O)CN2CCN(Cc3cccc(Cl)c3)CC2)s1` here?
**A.** inconclusive: 29.1 µM [activator, partial curve, poor fit]

**Q.** For `Cc1ccc(-n2c(O)c(/C=N/n3cnnc3)c3ccccc3c2=O)cc1`, which lipid storage change, negative = inhibition is on record?
**A.** inactive

**Q.** With `CCC1(C)N(O)C(C)(C)C(c2ccc(OC)cc2)=[N+]1[O-]` (stereo not drawn) as the compound, how does the lipid storage change, negative = inhibition read?
**A.** inconclusive: -38.1%

**Q.** Which lipid storage change, negative = inhibition does the source give for `CCOC(=O)c1c(NC(=O)CSc2nnc(-c3ccccc3)o2)sc(C(C)=O)c1C` here?
**A.** inconclusive: 189%

**Q.** Which lipid storage change, negative = inhibition does the source give for `Cc1cc(SCC(=O)N/N=C/c2ccco2)nc2ccccc12` here?
**A.** inconclusive: 3.57%

**Q.** Which Potency does the source give for `CN(C)S(=O)(=O)c1cccc(C(=O)OCC(=O)N2CCCC2=O)c1` here?
**A.** inconclusive: 2.91 µM [falling, partial curve]

**Q.** For `Cc1[nH]c2ccccc2c1C(c1ccncc1)N1CCN(c2ccccn2)CC1` (stereo not drawn), which lipid storage change, negative = inhibition is on record?
**A.** inconclusive: 60.8%

**Q.** With `C[C@@H](C(=O)NCCc1c[nH]c2ccccc12)[C@@H]1C[C@@]1(C)[C@@H](NC(=O)OCc1ccccc1)c1ccccc1` as the compound, how does the Potency read?
**A.** inconclusive: 0.82 µM [activator, full curve, poor fit]

**Q.** For `COC(=O)Nc1ccc(S(=O)(=O)N2CCCC(C(=O)Nc3cccc4c3OCCO4)C2)cc1` (stereo not drawn), which Potency is on record?
**A.** inconclusive: 0.0046 µM [falling, full curve, poor fit]

**Q.** For `O=C1c2ccccc2C(=O)N1CCOc1cccc(Br)c1`, which Potency is on record?
**A.** inconclusive: 29.1 µM [falling, single point]

**Q.** For `Cc1ccccc1NC(=O)CC1C(=O)NCCN1C(=O)c1cccc(Cl)c1` (stereo not drawn), which lipid storage change, negative = inhibition is on record?
**A.** inconclusive: -17.4%

**Q.** With `O=C(NCC1CCCO1)c1ccccc1-c1nc(-c2ccc(F)cc2)no1` (stereo not drawn) as the compound, how does the lipid storage change, negative = inhibition read?
**A.** inconclusive: -9.06%

**Q.** With `CS(=O)(=O)N1CCc2cc(S(=O)(=O)N3CCN(Cc4ccc5c(c4)OCO5)CC3)ccc21` as the compound, how does the Potency read?
**A.** inconclusive: 4.11 µM [activator, single point]

**Q.** For `O=C(CS(=O)c1ccccc1[N+](=O)[O-])Oc1ccc(Br)cc1` (stereo not drawn), which lipid storage change, negative = inhibition is on record?
**A.** inactive

**Q.** With `Nc1cc(-c2ccc(Cl)cc2)nn1S(=O)(=O)c1ccccc1` as the compound, how does the lipid storage change, negative = inhibition read?
**A.** inconclusive: -33.6%

**Q.** Which lipid storage change, negative = inhibition does the source give for `Cc1ccc(N(CC(=O)NCc2ccco2)S(=O)(=O)c2ccccc2)cc1` here?
**A.** inconclusive: -26.2%

**Q.** With `Cc1ccc(S(=O)(=O)N2CCC(C(=O)O)CC2)cc1C(=O)O` as the compound, how does the lipid storage change, negative = inhibition read?
**A.** inconclusive: 38%

**Q.** With `COc1ccc(C(=O)NC2CCN(C(=S)Nc3ccccc3C)CC2)cc1` as the compound, how does the Potency read?
**A.** inconclusive: 14.6 µM [cytotoxic, partial curve, poor fit]

**Q.** Which lipid storage change, negative = inhibition does the source give for `Cc1cc(C)nc(NNC2=CC(=O)CC(C)(C)C2)n1` here?
**A.** inconclusive: 14.4%

**Q.** With `CCCCN(C(=O)C(CCSC)N1C(=O)c2ccccc2C1=O)c1c(N)n(CCC)c(=O)[nH]c1=O` (stereo not drawn) as the compound, how does the Potency read?
**A.** inconclusive: 1.84 µM [activator, partial curve]

**Q.** Which lipid storage change, negative = inhibition does the source give for `CN1CCN(c2nc3c(c(=O)[nH]c(=O)n3C)n2CCCSc2ncccn2)CC1` here?
**A.** inconclusive: 30.4%

**Q.** For `Clc1ccc(-c2csc(=Nc3cccnc3)n2CCCn2ccnc2)cc1Cl`, which lipid storage change, negative = inhibition is on record?
**A.** inconclusive: 28.7%

**Q.** For `O=C1Cc2ccccc2C(=O)N1c1ccccc1`, which Potency is on record?
**A.** active: 10.3 µM

**Q.** Which lipid storage change, negative = inhibition does the source give for `COc1ccnc(N2CCN(c3cccc(C(F)(F)F)c3)CC2)c1C#N` here?
**A.** inconclusive: 21.1%

**Q.** With `CCc1ccc2[nH]c(=O)c(C(c3nnnn3Cc3ccco3)N3CCC(C)CC3)cc2c1` (stereo not drawn) as the compound, how does the lipid storage change, negative = inhibition read?
**A.** inconclusive: 119%

**Q.** With `CN1CCN(NC(=O)c2ccccc2F)CC1` as the compound, how does the lipid storage change, negative = inhibition read?
**A.** inconclusive: 5.64%

**Q.** Which Potency does the source give for `CC(C)CC(=O)Nc1ccccc1-c1nnn(CC(=O)N2CCOCC2)n1` here?
**A.** inconclusive: 0.58 µM [rising, partial curve, poor fit]

**Q.** For `COc1ccccc1CCCNC(=O)C1CCC(=O)N(CCCN2CCCC2=O)C1` (stereo not drawn), which lipid storage change, negative = inhibition is on record?
**A.** inconclusive: 23.1%
